# Data as given in PubChem BioAssay AID540276 (National Center for Advancing Translational Sciences (NCATS), 2011).
# Out of some 300,000 compounds screened, about 5,400 (1.8%) were called active. Inconclusive results, whose numbers are uncertain, are shown with a selection of clear calls. Calls follow the shape of the full dose curve; tested in HEK293 cells. Potencies of inconclusive entries are doubtful fits and often do not repeat.
# Assay: qHTS for inhibitors of binding or entry into cells for Marburg Virus
# Conditions: Marburg virus pseudotyped entry inhibition, cell reporter; activity change, negative = inhibition: at 37.8 µM (top of the series) unless noted
# % is scaled to controls: 0 for no effect and ±100 for the full control effect; potency is read from the fitted curve at half-maximal effect.
Structure (SMILES),Potency,"activity change, negative = inhibition"
Cc1ccc(CN2CCN(Cc3nc4c(s3)CCCC4)CC2CCO)cc1 (stereo unspecified),"inconclusive: 35.5 µM [inhibitor, single point]",–
Nc1c(C(=O)NCCC2=CCCCC2)sc2ccc(S(=O)(=O)N3CCCCC3)cc12,"inconclusive: 29.1 µM [inhibitor, partial curve, poor fit]",–
CCCNC(=O)c1ccc(S(=O)(=O)c2ccc(OC)cc2)c([N+](=O)[O-])c1,"inconclusive: 10 µM [inhibitor, partial curve, poor fit]",–
Cc1ccc(SCc2nc(-c3ccccn3)no2)cc1,–,inactive: 7.32%
Cc1ccc(OCCCCn2c(CCNC(=O)C(C)(C)C)nc3ccccc32)cc1,"inconclusive: 35.5 µM [inhibitor, partial curve, poor fit]",–
O=C(NCc1ccc2c(c1)OCO2)c1ccc(Cl)s1,"inconclusive: 3.98 µM [inhibitor, full curve]",–
COc1ccccc1OCC(O)CNCc1ccc2c(c1)OCO2 (stereo unspecified),"inconclusive: 28.2 µM [inhibitor, partial curve, poor fit]",–
Cc1nc2ccccc2n1C1CCN(CC(=O)Nc2ccccc2Br)CC1,"inconclusive: 15.8 µM [inhibitor, single point]",–
COc1ccc(C2(c3ccc(OC)cc3)NC(=O)N(Cn3nnc4ccccc4c3=O)C2=O)cc1,"inconclusive: 36.6 µM [inhibitor, partial curve, poor fit]",–
CCc1ccccc1Nc1nc(N)nc(COC(=O)CCNS(=O)(=O)c2ccccc2)n1,"inconclusive: 35.5 µM [inhibitor, single point]",–
O=C(NC(NC1CCS(=O)(=O)C1)C(=O)c1cccs1)c1ccccc1 (stereo unspecified),–,inactive: 4.12%
CCOC(=O)C1=C(C)NC2=C(C(=O)CC(C)(C)C2)C1c1ccc2c(c1)CCCN2C (stereo unspecified),–,inactive: -19.9%
Cc1sc2c(c1C)c(=O)n(-c1cccc(C(F)(F)F)c1)c(=O)n2Cc1ccccc1C#N,"inconclusive: 5.62 µM [activator, single point]",–
CCOC(=O)c1cc(-c2ccc(OC(F)F)cc2)nc2nc(SC)[nH]c(=O)c12,"inconclusive: 3.16 µM [inhibitor, full curve, poor fit]",–
O=C1/C(=C/c2cccs2)N=C(c2cccs2)N1Nc1ccccc1,"inconclusive: 14.1 µM [inhibitor, partial curve, poor fit]",–
CCCCNCC(=O)Nc1ccc(NC(=O)CNCCCC)cc1,active: 10 µM,–
O=S(=O)(NC1CCCC1)c1ccc(S(=O)(=O)N2CCc3ccccc32)cc1,"inconclusive: 10.3 µM [inhibitor, partial curve]",–
O=C(Nc1ccc2nc(-c3ccco3)c(-c3ccco3)nc2c1)N1CCN(c2ccccn2)CC1,"inconclusive: 29.1 µM [inhibitor, single point]",–
CON(c1nc(Cl)nc(N(C)C)n1)S(=O)(=O)c1ccccc1Cl,–,inactive: -0.988%
O=C(Cn1cc(C(F)(F)F)ccc1=O)Nc1cc(S(=O)(=O)N2CCOCC2)ccc1Cl,–,inactive: -0.645%
CC(=O)N/C(=C/c1ccc2c(c1)OCO2)C(=O)Nc1ccccc1,"inconclusive: 23.1 µM [activator, single point]",–
CCC(CC)[C@H]1C(C#N)=C(N)Oc2n[nH]c(C)c21,"inconclusive: 25.9 µM [inhibitor, single point]",–
O=C(O)CC/C(=N/NC(=O)c1ccc(-c2ccccc2)cc1)c1ccccc1,"inconclusive: 3.16 µM [activator, single point]",–

Structure (SMILES),Potency,"activity change, negative = inhibition"
C=CCN1CCN(C(=O)CCCc2ccccc2)CC1,active: 2.51 µM,–
CCC(C)(C)NC(=O)/C=C/c1cc(OC)c(OC)c(S(=O)(=O)N2CCc3ccccc32)c1,"inconclusive: 1.26 µM [inhibitor, full curve]",–
Cc1ccc(-c2noc(C3CCCN(C(=O)c4ccccc4Br)C3)n2)o1 (stereo unspecified),"inconclusive: 35.5 µM [activator, single point]",–
CNC[C@H](O)c1ccc(O)c(O)c1,inactive,–
O=C(CSc1ncnc2ccccc12)c1ccc2c(c1)OCCO2,"inconclusive: 22.4 µM [inhibitor, single point]",–
CCN1CNC(=S)N(c2ccccc2OC)C1,"inconclusive: 1.26 µM [activator, single point]",–
O=c1[nH]c(=S)n(C2CC2)c(O)c1/C=N/N1CCOCC1,"inconclusive: 6.31 µM [inhibitor, single point]",–
Cc1ccc(C23CC4CC(CC(NC(=O)NC(C)(C)CO)(C4)C2)C3)cc1,–,inactive: -18.1%
CCN(CC)C(=O)CSc1nnc(-c2cnccn2)n1-c1ccc(C)cc1,"inconclusive: 6.51 µM [activator, single point]",–
CC1(OC(=O)CCc2ccccc2)C(=O)C=C2C=C(C3CC3)OC=C2C1=O (stereo unspecified),"inconclusive: 6.68 µM [activator, single point]",–
NC(=O)C1(N2CCCCC2)CCN(C(=S)Nc2ccc(F)cc2)CC1,–,inactive: 1.64%
CN(C)Cc1c(-c2ccc(Cl)cc2)nc2ccccn12,"inconclusive: 10 µM [activator, partial curve, poor fit]",–
CCOC(=O)CNC(=O)CSc1nnc(-c2ccco2)n1N,–,inactive: 7.44%
O=C(Nc1nc(-c2ccccn2)cs1)C1CCCC1,–,inactive: 7.64% [at 46.1 µM]
COc1ccc2oc(=O)cc(-c3cc4cccc(OC)c4o3)c2c1,–,inactive: 16.2% [at 46.1 µM]
COc1cc(OC)cc(N(C(=O)C2COc3ccccc3O2)C(C(=O)NC2CCCCC2)c2ccc(O)cc2)c1 (stereo unspecified),"inconclusive: 22.4 µM [inhibitor, single point]",–
Cc1[nH]c2ccccc2c1/C=N/NC(=O)c1cc(-c2cccs2)[nH]n1,–,inactive: -35.9%
COc1ccc(/C=C/C(=O)CCC(=O)O)cc1,–,inactive: 4.93% [at 46.1 µM]
O=C(c1ccco1)N1CCN(C(=O)c2ccccc2OCc2ccccc2)CC1,–,inactive: 2.73%
COc1ccc(/C=N/OC(=O)Nc2ccc(Cl)cc2)c(OC)c1,–,inactive: 16.6% [at 46.1 µM]
CC(=O)N(CN1C(=O)c2ccccc2C1=O)c1cccc(C)c1,–,inactive: 17.5%
NC(=O)c1ccccc1NC(=O)Nc1cccc2ccccc12,"inconclusive: 6.31 µM [inhibitor, single point]",–
O=C1c2ccccc2NC(c2ccccc2)N1Cc1ccco1 (stereo unspecified),–,inactive: 0.378%

# By substructure: the compounds so far containing an NH in an aromatic ring
Structure (SMILES),Potency,"activity change, negative = inhibition"
CCOC(=O)c1cc(-c2ccc(OC(F)F)cc2)nc2nc(SC)[nH]c(=O)c12,"inconclusive: 3.16 µM [inhibitor, full curve, poor fit]",–
CCC(CC)[C@H]1C(C#N)=C(N)Oc2n[nH]c(C)c21,"inconclusive: 25.9 µM [inhibitor, single point]",–
O=c1[nH]c(=S)n(C2CC2)c(O)c1/C=N/N1CCOCC1,"inconclusive: 6.31 µM [inhibitor, single point]",–
Cc1[nH]c2ccccc2c1/C=N/NC(=O)c1cc(-c2cccs2)[nH]n1,–,inactive: -35.9%
